No constants are given. Whether binding was seen depends on the method and setting. Binding seen in cells or lysates may run through a third protein. A yes stands for co-enrichment or nearness to the bait. Other partners may have been found.
B1: Fibrillarin, endogenous in mouse ESCs (protein, UniProt P35550 1-327)
chain: MKPGFSPRGGGFGGRGGFGDRGGRGGGRGGRGGFGGGRGGFGGGGRGRGGGGGGFRGRGGGGGRGGGFQSGGNRGRGGGRGGKRGNQSGKNVMVEPHRHEGVFICRGKEDALVTKNLVPGESVYGEKRVSISEGDDKIEYRAWNPFRSKLAAAILGGVDQIHIKPGAKVLYLGAASGTTVSHVSDIVGPDGLVYAVEFSHRSGRDLINLAKKRTNIIPVIEDARHPHKYRMLIAMVDVIFADVAQPDQTRIVALNAHTFLRNGGHFVISIKANCIDSTASAEAVFASEVKKMQQENMKPQEQLTLEPYERDHAVVVGVYRPPPKVKN

Amino acid sequences for entries named in this document (tags omitted).
UniProt Q61937: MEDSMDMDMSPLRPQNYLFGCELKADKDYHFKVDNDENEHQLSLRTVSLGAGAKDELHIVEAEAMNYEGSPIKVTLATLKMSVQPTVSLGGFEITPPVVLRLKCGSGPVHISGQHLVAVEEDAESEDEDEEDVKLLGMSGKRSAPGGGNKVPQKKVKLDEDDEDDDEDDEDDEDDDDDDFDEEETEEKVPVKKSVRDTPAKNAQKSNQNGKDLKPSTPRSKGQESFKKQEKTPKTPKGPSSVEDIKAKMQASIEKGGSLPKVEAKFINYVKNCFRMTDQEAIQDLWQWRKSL
UniProt E9PVX6: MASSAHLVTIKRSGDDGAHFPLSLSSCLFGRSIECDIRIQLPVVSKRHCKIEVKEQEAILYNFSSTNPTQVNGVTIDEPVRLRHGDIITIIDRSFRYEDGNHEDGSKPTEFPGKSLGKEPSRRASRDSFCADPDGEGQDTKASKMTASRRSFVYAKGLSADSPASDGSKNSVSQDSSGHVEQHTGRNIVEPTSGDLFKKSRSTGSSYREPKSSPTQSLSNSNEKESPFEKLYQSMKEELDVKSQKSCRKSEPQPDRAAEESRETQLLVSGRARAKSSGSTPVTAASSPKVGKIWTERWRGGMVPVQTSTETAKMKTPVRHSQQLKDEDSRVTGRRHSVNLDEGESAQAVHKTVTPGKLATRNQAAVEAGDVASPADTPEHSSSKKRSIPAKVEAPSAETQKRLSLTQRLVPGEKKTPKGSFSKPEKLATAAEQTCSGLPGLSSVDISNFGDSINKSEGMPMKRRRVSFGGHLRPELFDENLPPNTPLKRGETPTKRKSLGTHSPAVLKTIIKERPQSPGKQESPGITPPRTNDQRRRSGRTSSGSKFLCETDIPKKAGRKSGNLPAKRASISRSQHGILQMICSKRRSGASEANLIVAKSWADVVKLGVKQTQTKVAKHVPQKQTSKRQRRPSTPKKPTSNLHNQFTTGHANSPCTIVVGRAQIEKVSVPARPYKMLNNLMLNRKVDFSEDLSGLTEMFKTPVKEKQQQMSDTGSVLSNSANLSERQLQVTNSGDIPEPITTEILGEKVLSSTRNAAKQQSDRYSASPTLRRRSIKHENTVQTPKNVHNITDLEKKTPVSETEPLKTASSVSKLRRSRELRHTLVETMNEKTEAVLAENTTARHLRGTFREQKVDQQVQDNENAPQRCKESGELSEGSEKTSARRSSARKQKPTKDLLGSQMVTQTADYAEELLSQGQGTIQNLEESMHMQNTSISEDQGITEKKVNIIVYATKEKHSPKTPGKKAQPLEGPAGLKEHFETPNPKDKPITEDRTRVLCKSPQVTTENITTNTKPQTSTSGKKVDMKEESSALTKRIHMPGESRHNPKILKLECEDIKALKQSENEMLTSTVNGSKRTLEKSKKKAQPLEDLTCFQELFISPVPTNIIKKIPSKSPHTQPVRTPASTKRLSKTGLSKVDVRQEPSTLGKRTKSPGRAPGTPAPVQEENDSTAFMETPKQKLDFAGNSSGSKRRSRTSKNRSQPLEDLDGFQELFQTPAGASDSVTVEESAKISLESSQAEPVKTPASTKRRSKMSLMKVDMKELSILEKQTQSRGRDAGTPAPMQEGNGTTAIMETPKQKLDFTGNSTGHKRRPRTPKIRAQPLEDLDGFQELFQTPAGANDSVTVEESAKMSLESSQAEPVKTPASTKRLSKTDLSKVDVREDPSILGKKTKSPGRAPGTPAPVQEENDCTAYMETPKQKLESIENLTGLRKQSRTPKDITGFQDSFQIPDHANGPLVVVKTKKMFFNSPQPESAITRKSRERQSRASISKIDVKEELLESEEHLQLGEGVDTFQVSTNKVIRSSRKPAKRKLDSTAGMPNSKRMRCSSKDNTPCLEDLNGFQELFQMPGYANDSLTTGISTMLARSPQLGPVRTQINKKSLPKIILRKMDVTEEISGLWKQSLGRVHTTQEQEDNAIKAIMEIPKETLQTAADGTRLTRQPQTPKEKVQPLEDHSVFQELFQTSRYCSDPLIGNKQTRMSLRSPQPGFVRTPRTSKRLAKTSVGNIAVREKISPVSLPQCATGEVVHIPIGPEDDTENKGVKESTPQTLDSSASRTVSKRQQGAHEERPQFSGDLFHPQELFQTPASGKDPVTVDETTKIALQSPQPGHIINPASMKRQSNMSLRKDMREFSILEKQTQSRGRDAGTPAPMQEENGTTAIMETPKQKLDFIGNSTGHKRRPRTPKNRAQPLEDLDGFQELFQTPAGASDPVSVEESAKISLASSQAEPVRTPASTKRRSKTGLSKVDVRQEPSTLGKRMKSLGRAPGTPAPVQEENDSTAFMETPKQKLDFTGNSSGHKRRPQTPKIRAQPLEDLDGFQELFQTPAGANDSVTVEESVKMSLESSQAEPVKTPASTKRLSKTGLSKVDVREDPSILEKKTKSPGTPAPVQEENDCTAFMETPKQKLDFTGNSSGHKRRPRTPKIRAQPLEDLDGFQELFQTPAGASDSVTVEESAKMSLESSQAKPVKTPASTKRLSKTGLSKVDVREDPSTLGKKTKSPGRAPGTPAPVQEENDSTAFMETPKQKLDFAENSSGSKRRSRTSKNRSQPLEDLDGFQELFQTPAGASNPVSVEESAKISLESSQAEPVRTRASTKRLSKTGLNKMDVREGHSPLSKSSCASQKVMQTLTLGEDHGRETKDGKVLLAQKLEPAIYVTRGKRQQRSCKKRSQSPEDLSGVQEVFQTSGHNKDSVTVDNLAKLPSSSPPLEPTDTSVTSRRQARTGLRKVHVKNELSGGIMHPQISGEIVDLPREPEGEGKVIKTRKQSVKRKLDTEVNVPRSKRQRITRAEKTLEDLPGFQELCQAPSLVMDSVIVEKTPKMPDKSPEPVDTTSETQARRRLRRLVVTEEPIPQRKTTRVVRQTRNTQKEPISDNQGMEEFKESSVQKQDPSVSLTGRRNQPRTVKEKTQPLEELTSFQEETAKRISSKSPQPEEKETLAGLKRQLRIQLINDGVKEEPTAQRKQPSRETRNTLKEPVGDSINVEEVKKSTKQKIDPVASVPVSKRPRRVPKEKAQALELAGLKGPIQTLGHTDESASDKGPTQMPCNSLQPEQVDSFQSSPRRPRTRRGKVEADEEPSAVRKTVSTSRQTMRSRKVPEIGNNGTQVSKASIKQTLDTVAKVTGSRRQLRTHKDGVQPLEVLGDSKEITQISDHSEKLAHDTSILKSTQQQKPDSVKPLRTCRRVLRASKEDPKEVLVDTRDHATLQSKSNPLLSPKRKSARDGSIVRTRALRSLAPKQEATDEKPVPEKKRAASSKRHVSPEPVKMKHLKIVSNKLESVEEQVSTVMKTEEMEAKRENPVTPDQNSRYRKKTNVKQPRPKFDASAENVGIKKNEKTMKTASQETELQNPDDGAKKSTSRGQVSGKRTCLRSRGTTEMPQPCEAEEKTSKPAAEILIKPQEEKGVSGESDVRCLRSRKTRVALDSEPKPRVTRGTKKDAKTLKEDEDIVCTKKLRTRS
UniProt Q9Z148: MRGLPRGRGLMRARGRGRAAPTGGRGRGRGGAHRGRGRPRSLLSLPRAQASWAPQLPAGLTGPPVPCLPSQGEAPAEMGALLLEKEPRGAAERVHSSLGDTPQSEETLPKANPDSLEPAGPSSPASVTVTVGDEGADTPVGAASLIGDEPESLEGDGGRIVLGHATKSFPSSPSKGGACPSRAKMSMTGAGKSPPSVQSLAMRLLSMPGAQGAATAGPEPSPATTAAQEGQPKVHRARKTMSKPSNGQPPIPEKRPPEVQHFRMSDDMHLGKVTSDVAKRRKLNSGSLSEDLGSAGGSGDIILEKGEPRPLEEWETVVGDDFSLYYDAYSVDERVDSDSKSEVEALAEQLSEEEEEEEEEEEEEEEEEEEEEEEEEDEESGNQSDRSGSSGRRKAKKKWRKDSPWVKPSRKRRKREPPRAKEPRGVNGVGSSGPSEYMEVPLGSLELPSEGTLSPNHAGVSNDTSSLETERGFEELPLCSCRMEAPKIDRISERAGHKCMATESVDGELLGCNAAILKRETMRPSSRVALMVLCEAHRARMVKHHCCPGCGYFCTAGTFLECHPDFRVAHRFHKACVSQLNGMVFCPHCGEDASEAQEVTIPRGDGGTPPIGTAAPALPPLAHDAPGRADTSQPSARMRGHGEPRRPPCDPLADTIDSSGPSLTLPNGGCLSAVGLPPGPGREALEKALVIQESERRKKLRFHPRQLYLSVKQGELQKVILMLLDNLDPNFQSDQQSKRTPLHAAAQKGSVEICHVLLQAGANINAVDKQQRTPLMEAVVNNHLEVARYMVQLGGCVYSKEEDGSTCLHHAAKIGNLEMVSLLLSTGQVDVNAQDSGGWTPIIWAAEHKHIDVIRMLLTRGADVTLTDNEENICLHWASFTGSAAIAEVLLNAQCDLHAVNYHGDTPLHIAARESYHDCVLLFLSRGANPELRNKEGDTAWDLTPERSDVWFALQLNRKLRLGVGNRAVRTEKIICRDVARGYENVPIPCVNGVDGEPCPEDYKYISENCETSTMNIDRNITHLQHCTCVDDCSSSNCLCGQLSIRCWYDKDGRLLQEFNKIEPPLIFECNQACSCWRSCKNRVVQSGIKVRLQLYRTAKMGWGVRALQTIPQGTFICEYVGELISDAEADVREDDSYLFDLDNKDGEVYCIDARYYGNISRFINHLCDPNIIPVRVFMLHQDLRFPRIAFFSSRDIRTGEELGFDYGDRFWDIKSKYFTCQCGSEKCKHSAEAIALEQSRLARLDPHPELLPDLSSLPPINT

target: nucleophosmin (NPM1), endogenous in mouse ESCs (mouse (endogenous in E14 ESCs)) (UniProt Q61937); test: affinity purification with mass spectrometry

**Q.** For “MKI67, endogenous in mouse ESCs (from UniProt E9PVX6 1-3177)”, which binding is on record?
**A.** Its binding is “binds”.

**Q.** For “histone lysine methyltransferase G9a (EHMT2), endogenous in mouse ESCs (from UniProt Q9Z148 1-1263) (enzyme)”, which binding is on record?
**A.** The binding was “binds”.

**Q.** B1 was tested. Which binding did it give?
**A.** Its binding is “binds”.

— doi:10.1101/2024.07.03.601885
